Publication PMC8866460
These are yes or no findings as the source states them, for the method shown. In cells and extracts the contact can be indirect. Some entries that bind do so weakly or less than the wild type.

Protein sequences, listed by entry. Tags and fused reporters are not part of them.
UniProt P78527: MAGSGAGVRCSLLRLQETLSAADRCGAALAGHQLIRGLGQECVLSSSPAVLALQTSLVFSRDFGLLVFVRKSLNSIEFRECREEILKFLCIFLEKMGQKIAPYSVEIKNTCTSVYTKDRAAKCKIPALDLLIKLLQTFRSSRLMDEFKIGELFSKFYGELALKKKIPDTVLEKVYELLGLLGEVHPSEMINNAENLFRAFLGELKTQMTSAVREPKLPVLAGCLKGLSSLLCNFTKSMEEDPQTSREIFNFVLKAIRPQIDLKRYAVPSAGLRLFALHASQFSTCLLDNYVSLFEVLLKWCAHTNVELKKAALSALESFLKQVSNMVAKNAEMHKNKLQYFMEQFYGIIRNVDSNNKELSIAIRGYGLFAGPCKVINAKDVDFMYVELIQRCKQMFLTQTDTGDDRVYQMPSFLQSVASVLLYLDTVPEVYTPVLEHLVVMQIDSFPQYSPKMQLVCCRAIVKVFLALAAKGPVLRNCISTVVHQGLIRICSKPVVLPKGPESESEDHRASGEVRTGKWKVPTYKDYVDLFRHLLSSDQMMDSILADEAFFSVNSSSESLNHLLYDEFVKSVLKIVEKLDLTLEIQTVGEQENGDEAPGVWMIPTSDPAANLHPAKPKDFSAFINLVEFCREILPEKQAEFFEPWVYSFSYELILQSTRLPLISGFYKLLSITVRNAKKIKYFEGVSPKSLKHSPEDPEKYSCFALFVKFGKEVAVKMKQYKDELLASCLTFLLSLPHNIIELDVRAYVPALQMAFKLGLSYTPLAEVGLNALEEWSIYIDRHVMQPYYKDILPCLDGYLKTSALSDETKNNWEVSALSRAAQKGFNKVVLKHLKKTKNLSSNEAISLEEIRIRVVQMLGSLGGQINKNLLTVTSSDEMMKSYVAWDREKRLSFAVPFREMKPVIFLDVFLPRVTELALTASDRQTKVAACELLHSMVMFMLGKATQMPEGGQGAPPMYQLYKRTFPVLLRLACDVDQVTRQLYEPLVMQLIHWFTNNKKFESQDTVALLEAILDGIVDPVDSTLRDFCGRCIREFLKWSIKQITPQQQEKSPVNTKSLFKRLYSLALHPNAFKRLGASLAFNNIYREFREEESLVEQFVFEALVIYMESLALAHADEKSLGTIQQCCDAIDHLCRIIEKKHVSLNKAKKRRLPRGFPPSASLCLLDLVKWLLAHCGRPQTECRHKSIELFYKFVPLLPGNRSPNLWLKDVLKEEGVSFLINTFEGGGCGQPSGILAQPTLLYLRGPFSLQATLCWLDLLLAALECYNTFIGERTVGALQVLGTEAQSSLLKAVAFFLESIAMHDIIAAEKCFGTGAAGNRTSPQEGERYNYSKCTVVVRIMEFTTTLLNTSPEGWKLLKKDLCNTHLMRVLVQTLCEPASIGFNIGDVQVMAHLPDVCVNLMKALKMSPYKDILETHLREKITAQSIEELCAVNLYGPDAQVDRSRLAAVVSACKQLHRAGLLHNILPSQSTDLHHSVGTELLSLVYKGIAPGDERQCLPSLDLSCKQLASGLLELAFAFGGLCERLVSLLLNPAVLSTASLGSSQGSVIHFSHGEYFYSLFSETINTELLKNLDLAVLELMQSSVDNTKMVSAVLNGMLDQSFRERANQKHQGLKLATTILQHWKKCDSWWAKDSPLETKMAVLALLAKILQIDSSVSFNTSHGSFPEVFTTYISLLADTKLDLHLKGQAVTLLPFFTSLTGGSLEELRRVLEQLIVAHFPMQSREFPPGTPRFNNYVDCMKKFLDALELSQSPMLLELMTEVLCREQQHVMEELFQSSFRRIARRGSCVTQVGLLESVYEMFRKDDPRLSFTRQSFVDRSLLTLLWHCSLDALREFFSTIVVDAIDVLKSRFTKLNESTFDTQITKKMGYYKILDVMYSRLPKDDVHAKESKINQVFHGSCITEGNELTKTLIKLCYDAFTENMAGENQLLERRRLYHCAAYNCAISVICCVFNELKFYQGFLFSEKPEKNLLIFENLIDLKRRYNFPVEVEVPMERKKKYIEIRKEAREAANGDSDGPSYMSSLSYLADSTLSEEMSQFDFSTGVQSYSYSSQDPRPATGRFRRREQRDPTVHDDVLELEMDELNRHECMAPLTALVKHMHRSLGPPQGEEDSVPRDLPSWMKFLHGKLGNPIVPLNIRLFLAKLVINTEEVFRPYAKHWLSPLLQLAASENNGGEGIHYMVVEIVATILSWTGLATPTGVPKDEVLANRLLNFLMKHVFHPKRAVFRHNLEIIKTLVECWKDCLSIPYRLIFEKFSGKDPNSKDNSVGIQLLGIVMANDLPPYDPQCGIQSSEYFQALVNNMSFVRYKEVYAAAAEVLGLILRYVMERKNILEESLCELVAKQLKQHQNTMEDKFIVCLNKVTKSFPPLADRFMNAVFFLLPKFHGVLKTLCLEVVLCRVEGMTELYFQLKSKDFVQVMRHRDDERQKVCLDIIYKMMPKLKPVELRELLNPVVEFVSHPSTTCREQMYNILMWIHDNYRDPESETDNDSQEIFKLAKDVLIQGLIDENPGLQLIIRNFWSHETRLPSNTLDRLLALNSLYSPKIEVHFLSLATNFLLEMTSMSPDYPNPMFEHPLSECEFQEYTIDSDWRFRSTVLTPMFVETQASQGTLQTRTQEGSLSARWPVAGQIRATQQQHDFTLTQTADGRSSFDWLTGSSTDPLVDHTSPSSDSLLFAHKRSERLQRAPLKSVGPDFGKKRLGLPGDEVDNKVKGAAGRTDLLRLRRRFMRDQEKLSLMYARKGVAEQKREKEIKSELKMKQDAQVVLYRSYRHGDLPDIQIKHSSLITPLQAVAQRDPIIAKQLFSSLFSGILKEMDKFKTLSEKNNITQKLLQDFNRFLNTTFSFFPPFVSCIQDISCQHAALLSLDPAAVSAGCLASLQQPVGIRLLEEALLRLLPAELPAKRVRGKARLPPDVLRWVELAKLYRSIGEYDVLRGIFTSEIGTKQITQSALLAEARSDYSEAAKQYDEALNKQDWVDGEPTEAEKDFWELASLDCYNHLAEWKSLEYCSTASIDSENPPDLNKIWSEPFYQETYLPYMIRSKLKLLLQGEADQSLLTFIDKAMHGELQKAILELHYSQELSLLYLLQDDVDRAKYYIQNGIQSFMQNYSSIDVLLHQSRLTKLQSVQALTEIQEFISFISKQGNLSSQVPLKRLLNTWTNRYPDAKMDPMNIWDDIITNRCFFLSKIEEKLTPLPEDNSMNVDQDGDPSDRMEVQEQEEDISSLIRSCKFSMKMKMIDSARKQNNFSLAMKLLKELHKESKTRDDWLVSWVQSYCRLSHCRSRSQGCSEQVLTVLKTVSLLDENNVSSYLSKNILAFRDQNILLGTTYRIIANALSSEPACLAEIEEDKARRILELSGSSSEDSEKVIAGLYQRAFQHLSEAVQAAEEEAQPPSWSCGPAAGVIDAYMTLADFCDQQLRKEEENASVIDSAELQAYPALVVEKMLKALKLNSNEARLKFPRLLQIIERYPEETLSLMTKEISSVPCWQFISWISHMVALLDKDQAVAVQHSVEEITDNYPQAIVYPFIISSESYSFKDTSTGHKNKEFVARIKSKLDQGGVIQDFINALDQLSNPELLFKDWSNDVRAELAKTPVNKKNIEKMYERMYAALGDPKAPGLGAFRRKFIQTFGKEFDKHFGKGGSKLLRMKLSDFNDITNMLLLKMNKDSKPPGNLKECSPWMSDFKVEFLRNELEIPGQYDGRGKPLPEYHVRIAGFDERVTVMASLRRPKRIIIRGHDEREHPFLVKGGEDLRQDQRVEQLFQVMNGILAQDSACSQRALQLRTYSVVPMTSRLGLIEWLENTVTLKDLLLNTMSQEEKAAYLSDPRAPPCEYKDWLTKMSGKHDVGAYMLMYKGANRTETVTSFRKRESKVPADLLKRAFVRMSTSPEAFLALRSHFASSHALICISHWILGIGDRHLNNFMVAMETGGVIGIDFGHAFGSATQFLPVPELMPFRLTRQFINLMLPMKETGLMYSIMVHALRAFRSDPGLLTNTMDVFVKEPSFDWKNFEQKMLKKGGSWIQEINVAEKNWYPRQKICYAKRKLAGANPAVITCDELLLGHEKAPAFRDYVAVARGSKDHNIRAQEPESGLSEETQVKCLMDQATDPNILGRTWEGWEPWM
UniProt P12956: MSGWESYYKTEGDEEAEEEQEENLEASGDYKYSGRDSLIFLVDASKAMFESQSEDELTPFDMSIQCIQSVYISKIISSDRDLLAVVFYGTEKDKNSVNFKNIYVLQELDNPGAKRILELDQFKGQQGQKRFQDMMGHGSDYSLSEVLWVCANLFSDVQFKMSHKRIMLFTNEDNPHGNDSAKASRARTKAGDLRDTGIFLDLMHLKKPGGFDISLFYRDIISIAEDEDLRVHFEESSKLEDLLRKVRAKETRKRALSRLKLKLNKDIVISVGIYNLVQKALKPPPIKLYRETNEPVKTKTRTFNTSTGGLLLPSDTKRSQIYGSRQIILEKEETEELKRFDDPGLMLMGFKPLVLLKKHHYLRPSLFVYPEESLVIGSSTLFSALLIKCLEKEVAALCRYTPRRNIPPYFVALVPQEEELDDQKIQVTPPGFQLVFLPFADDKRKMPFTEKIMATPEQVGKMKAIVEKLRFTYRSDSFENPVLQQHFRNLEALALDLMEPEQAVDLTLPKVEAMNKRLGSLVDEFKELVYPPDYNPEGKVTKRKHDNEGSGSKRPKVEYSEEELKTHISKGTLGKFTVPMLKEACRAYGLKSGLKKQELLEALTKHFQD
UniProt Q9BUR4: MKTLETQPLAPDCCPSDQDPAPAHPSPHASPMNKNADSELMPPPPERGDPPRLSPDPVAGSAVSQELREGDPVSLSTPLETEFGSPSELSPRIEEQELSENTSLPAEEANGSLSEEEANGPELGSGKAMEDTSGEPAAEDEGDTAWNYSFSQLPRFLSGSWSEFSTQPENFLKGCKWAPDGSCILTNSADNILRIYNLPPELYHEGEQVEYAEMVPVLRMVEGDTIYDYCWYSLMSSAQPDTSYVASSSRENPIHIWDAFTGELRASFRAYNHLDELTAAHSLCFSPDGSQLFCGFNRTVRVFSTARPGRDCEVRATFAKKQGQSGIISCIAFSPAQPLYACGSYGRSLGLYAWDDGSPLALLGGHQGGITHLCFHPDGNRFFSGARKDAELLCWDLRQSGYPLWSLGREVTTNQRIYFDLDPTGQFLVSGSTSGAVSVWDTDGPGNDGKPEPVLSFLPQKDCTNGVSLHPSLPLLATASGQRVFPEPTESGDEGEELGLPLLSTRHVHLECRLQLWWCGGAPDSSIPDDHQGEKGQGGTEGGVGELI
UniProt P38432: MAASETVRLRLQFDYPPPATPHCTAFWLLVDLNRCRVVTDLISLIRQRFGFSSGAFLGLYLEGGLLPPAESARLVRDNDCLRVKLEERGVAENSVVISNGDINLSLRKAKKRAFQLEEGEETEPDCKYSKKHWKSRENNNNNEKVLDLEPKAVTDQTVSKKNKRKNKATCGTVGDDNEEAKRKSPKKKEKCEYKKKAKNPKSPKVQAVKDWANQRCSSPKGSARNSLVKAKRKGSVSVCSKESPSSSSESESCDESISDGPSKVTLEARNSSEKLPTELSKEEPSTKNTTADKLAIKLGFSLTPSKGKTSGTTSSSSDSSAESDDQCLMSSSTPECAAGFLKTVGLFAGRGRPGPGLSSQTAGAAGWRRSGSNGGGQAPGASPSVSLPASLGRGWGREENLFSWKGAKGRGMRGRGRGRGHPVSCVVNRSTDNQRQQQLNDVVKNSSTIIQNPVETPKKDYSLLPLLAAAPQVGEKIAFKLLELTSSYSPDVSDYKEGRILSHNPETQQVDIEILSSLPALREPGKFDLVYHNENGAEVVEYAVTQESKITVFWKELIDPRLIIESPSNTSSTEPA

Columns and labels:
Assay in all cases: co-IP; native IP of endogenous proteins from U2OS lysates (NP40 lysis buffer, sonicated); 100-600 ug total protein, 1 ug antibody, Dynabeads Protein G, overnight at 4 °C; washed twice with NP40 and twice with RIPA buffer; western blotting; cells untreated (Fig. 7b) or irradiated (6 Gy, 30 min recovery; Fig. 6a, b, h), with or without depletion of scaRNA2 or LINP1
[1] = biological target: DNA-dependent protein kinase catalytic subunit (DNA-PKcs) (human (endogenous in U2OS)) (UniProt P78527)
[2] = biological target: Ku70 (human (endogenous in U2OS)) (UniProt P12956)
[3] = biological target: Ku80 (human (endogenous in U2OS)) (UniProt P13010)

Measured: binding

WRAP53β (WD40 encoding RNA Antisense to p53) (from UniProt Q9BUR4 1-548)
binds: all assays above

coilin (from UniProt P38432 1-576)
binds: all assays above
